Test results: patent US20160009800A1

By UniProt entry, the sequences of proteins in these tests, tags left out. Where a name states a change or a piece, a line headed by the entry shows the natural chain unless it says otherwise.
UniProt P06213: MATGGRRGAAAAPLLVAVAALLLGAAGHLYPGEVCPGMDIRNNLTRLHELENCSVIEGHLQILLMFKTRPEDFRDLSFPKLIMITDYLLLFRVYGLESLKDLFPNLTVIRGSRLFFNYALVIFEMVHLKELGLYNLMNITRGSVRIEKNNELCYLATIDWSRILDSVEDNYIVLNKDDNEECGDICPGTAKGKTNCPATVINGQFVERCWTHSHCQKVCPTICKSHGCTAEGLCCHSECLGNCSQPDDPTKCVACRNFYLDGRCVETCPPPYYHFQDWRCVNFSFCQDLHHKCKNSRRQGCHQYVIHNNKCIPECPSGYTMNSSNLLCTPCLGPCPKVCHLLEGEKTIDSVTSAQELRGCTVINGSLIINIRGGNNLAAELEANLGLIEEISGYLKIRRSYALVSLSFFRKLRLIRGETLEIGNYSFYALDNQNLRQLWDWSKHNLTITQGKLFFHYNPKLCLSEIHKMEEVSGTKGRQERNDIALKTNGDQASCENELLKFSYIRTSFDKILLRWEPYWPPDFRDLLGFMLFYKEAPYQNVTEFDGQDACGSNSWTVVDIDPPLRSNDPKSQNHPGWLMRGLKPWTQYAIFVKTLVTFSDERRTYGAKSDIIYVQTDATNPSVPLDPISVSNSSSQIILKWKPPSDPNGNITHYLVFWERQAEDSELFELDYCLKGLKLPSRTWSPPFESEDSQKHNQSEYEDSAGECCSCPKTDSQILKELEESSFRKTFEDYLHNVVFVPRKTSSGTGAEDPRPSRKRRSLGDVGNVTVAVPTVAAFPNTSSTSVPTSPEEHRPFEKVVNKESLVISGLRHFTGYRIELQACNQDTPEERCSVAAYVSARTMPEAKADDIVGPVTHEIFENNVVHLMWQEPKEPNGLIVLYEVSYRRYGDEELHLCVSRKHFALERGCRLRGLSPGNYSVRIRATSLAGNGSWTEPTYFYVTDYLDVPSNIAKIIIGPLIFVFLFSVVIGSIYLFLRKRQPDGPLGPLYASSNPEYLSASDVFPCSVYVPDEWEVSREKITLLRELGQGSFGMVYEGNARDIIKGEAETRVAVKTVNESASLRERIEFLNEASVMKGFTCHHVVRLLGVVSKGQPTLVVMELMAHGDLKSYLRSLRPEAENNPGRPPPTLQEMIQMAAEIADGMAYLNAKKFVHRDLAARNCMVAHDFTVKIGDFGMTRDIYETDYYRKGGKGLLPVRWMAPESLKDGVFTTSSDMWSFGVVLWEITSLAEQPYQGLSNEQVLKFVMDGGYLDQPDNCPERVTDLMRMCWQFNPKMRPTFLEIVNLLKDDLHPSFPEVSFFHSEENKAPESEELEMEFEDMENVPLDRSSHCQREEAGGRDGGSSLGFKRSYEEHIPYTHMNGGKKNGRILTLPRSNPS

How the values were obtained:
[1] = target: human insulin receptor (human) (UniProt P06213); assay: FACS on monocytes of human PBMC, without insulin
[2] = target: human insulin receptor (human) (UniProt P06213); assay: FACS on monocytes of human PBMC and on CHO cells expressing human insulin receptor, without insulin
[3] = target: cynomolgus monkey insulin receptor (cynomolgus monkey); assay: FACS on monocytes of cynomolgus PBMC and on CHO cells expressing cynomolgus insulin receptor, without insulin
[4] = target: human insulin receptor (human) (UniProt P06213); assay: KinExA antibody depletion by hINSR8-CHOK1 cells
[5] = target: human insulin receptor (human) (UniProt P06213); assay: flow cytometry, biotinylated IgG on hINSR8-CHOK1 cells
[6] = target: human insulin receptor (human) (UniProt P06213); assay: FACS on CHO cells expressing human insulin receptor, without insulin
[7] = target: cynomolgus monkey insulin receptor (cynomolgus monkey); assay: FACS on CHO cells expressing cynomolgus insulin receptor, without insulin

B1: Ab010 (antibody, V domains shown)
VH: EVQLQQSGPVLVKPGASVKMSCKAAGYTFTDSYMNWVKQSHGKSLEWIGDINPYNGGTSYNQHFKGKATLTVDKSSSTAYMELNSLTSEDSAVYYCARRRGAMDYWGQGTSVTVSS
VL: DVQIIQSPSYLAASPGETITINCRASKSISKYLAWYQEKPGKTNKLLIYSGSTLQSGIPSRFSGSGSGTDFTLTISSLEPEDFAMYYCQQHNEYPLTFGAGTKLELKR
binding [1]: binds

B2: Ab037 (antibody, V domains shown)
VH: EVQLLESGGGLVQPGGSLRLSCAASGFTFSSYEMNWVRQAPGKGLEWVSSISSSSRYADVANSVVGRFTISRDNSKNTLYLQMNSLRAEDTAVYYCARGEWLDHFDYWGQGTLVTVSS
VL: QSVLTQPPSASGTPGQRVTISCSGSSSNIGNSAVNWYQQLPGTAPKLLIYDNNKRPSGVPDRFSGSKSGTSASLAISGLRSEDEADYYCQVWDSGTAVFGGGTKLTVLG
binding [2]: binds | binding [3]: binds | binding [4]: binds | binding [5]: binds

B3: Ab062 (antibody, IgG2, V domains shown)
VH: QVQLQQWGAGLLKPSETLSLTCAVYGGSFSGYYWSWIRQPPGKGLEWIGEINHSGSTNYNPSLKSRVTISVDTSKNQFSLKLSSVTAADTAVYYCARGPSGWYIREFDYWGQGTLVTVSS
VL: QSVLTQPPSVSGAPGQRVTISCTGSSSNIGAGYDVHWYQQLPGTAPKLLIYGNSNRPSGVPDRFSGSKSGTSASLAITGLQAEDEADYYCQSYDSSLSGSGVFGGGTKVTVL
binding [6]: binds | binding [7]: binds | binding [4]: binds | binding [5]: binds

B4: Ab019 (antibody, V domains shown)
VH: QVQLQQSEAELVKPGASVKISCKASGYTFSNYWMNWVKQRPGKGLEWIGQIYPGDGDTNYNGKFKGKATLIADKSSSTAYMQLSSLTSEDSAVYFCARGVSGYGAMDYWGQGTSVTVSS
VL: DLVLTQSPASLAVSLGQRATISCRASKSVSTSGYSYIHWYQQKPGQPPKLLIYLASNLESGVPARFSGSGSGTDFTLNIHPVEEEDAATYYCQHNREPRTFGGGTNLEIKR
binding [5]: binds

B5: Ab088 (antibody, V domains shown)
VH: B4 VH with N31S, N35S, I71T, S77G
VL: B4 VL with S30T, V62A, A88G, T89N, N106K
binding [5]: binds

B6: Ab089 (antibody, V domains shown)
VH: B4 VH with N31S, G62V, I71T, S77G
VL: B4 VL with P98L, N106K
binding [5]: binds

B7: Ab087 (antibody, V domains shown)
VH: EVQLVESGGGLVKPGGSLKLSCAASGFTFSNYAMSWVRQTPEKRLEWVATISDGGHYIDYPDNVKGRFTISRDNAKNNLYLQMSHLRSEDSAMYYCARATNFAYWGQGTLVTVSA
VL: DIQMTQSPSSLSASLGGKVTITCKASQHINKYIAWYQHKPGKGPRLLIHYTSTLQPGIPSRFSGSGSGRDYSFSISNLEPEDIATYYCLQYDNLYTFGGGTKLEIKR
binding [5]: binds

B8: Ab086 (antibody, IgG2, V domains shown)
VH: EVQLVETGGGVVRPGGSLRLSCAASGFTFGDYGMSWVRQAPGKGLEWVSGINWNGGSTGYADSVKGRFTISRDNAKNSLYLQMNSLRAEDTALYYCARDILGVEFDYWGQGTLVTVSS
VL: QSALTQPASVSGSLGQSITISCTGTSSDIGLYKFVSWYQQHPGKAPKLMIYDVSYRPSGVSNRFSGSSSGNTASLTISGLQAEDEADYYCNSYTSSSTLVVFGGGTKLTVL
binding [5]: binds

B9: Ab020 (antibody, V domains shown)
VH: B4 VH with N31S, G62V, I71T, S77G
VL: B4 VL with P98L, N106K
binding [5]: binds

Positions count from the first letter of the chain named. Results are given in words; binding and its absence hold for the method and conditions named. Binding calls can cover weak binding; strength is not graded here.
